# Test results as given in the supplement of paper PMC7666118.
# Protein sequences, listed by entry. Tags and fused reporters are not part of them. Lines headed by an entry give the natural chain unless they say otherwise; changes in a name come on top.
# UniProt O75695: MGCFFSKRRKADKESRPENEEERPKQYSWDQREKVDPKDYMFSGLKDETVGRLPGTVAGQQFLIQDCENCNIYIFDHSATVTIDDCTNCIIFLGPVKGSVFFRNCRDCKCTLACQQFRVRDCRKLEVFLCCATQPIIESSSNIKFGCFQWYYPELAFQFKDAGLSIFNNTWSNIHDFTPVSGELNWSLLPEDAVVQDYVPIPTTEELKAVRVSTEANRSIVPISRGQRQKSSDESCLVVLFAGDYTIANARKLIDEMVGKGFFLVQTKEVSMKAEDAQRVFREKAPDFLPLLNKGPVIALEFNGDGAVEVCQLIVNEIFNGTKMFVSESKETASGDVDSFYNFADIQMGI
# UniProt Q9C0D9, whole entry: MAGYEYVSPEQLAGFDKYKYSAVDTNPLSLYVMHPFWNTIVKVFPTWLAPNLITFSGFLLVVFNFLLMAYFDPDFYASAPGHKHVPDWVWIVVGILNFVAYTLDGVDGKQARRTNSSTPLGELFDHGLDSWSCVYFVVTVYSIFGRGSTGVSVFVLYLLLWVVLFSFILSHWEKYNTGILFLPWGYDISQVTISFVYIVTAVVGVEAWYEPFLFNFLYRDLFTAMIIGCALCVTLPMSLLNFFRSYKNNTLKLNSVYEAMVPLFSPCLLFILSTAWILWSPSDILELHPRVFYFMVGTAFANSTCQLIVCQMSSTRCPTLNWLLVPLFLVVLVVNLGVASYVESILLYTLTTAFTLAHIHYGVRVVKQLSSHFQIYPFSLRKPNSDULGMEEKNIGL
# UniProt Q9UBE0: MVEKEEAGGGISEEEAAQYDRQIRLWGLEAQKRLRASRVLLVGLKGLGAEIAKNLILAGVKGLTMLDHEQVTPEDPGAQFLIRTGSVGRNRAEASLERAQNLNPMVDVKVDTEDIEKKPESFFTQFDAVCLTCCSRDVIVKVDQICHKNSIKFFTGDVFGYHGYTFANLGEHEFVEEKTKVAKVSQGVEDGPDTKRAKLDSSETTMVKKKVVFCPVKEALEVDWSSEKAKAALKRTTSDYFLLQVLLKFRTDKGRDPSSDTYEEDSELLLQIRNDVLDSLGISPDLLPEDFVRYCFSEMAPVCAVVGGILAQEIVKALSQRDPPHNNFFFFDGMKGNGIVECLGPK
# UniProt Q96BH1: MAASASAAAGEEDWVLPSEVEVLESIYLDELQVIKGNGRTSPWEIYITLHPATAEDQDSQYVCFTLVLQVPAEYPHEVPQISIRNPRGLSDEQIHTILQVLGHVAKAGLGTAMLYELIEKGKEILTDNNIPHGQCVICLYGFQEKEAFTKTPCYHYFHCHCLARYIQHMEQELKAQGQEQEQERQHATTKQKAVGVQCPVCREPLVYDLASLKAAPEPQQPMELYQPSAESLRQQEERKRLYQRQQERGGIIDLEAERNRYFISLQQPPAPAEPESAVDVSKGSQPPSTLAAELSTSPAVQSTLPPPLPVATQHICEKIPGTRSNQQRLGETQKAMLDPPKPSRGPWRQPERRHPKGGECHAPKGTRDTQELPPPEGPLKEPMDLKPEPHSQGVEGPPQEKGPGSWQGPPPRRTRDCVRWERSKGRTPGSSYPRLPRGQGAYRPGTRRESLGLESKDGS
# UniProt Q9Y225: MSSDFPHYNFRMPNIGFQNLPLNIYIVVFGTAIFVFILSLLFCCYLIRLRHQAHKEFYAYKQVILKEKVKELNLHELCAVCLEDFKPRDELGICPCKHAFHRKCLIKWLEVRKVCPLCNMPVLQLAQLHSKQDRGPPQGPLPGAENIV
# UniProt Q9H3S1: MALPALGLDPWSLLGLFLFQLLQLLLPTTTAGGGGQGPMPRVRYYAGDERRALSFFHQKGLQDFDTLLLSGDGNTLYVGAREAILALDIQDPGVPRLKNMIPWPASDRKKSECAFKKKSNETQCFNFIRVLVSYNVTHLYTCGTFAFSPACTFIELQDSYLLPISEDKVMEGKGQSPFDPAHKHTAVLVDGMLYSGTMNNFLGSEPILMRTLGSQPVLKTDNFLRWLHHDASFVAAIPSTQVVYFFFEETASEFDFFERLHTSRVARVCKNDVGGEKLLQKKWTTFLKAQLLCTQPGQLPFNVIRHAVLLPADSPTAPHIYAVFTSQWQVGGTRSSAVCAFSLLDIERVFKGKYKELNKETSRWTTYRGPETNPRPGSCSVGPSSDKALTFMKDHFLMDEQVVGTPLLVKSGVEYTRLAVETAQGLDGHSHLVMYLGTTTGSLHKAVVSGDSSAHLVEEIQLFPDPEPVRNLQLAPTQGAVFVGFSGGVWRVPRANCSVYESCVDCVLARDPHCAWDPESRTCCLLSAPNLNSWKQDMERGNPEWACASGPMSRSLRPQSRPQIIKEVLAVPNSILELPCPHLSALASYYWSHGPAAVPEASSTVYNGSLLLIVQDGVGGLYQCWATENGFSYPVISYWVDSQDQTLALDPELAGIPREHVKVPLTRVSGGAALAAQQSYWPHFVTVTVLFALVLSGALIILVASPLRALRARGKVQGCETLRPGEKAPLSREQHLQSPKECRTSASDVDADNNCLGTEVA
# UniProt O94979: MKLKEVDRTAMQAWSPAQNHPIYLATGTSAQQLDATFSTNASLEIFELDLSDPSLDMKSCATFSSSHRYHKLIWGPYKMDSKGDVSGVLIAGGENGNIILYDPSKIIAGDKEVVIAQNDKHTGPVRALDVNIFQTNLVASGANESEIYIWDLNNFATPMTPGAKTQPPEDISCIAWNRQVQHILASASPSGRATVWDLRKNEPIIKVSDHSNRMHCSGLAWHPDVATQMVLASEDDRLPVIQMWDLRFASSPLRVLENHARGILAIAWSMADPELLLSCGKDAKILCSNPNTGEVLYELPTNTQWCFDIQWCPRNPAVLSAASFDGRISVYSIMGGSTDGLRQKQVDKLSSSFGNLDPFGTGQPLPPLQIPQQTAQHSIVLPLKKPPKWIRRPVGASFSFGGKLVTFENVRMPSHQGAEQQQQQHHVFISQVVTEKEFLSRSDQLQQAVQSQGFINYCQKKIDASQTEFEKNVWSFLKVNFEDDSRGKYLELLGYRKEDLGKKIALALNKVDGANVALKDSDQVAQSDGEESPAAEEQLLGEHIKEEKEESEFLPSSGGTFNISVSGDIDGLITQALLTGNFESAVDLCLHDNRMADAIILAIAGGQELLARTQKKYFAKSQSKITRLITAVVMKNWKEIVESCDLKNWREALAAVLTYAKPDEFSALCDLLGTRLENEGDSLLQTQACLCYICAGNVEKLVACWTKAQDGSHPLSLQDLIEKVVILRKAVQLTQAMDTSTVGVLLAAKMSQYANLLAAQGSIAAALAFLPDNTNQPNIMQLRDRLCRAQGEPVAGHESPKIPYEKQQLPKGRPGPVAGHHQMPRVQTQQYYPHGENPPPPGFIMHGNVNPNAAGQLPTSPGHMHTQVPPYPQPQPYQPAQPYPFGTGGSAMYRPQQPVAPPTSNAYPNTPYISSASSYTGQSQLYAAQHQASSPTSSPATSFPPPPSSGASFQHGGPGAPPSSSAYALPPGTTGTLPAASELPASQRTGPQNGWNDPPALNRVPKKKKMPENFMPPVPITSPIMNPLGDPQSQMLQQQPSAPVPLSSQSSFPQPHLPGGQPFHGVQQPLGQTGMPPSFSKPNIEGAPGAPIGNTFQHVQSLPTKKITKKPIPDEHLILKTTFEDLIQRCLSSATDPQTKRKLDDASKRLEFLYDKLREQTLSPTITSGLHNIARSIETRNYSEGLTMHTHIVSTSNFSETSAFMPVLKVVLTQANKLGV
# UniProt P51812, whole entry: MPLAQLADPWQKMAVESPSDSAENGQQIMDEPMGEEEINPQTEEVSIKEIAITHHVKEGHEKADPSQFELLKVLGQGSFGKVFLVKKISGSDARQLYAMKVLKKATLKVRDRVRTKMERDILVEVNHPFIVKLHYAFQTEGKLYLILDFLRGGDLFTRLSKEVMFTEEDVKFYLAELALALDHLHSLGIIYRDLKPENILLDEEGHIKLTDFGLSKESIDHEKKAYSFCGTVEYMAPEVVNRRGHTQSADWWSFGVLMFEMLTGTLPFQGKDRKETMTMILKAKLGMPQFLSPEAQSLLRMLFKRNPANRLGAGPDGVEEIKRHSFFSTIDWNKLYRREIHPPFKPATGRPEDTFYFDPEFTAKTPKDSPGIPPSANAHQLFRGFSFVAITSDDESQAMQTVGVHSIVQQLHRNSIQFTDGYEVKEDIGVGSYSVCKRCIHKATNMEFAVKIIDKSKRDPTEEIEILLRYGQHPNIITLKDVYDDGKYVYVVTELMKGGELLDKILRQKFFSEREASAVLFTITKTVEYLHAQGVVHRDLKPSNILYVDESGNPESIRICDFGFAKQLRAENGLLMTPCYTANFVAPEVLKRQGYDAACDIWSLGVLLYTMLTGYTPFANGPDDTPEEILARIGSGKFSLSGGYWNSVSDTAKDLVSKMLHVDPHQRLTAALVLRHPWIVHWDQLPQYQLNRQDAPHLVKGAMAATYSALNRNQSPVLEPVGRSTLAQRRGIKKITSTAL
# UniProt Q14108: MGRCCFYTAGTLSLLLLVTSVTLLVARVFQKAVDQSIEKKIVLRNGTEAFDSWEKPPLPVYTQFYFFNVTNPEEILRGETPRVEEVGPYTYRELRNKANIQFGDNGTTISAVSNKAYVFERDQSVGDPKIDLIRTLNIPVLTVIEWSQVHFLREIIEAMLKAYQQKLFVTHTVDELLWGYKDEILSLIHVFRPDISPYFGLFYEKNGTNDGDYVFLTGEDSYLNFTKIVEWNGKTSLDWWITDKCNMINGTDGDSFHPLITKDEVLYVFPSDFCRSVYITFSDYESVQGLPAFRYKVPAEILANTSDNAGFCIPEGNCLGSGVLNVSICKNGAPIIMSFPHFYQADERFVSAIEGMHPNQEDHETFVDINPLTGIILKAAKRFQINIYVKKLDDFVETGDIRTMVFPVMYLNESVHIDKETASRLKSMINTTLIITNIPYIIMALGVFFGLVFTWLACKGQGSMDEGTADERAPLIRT
# UniProt Q8IZE3: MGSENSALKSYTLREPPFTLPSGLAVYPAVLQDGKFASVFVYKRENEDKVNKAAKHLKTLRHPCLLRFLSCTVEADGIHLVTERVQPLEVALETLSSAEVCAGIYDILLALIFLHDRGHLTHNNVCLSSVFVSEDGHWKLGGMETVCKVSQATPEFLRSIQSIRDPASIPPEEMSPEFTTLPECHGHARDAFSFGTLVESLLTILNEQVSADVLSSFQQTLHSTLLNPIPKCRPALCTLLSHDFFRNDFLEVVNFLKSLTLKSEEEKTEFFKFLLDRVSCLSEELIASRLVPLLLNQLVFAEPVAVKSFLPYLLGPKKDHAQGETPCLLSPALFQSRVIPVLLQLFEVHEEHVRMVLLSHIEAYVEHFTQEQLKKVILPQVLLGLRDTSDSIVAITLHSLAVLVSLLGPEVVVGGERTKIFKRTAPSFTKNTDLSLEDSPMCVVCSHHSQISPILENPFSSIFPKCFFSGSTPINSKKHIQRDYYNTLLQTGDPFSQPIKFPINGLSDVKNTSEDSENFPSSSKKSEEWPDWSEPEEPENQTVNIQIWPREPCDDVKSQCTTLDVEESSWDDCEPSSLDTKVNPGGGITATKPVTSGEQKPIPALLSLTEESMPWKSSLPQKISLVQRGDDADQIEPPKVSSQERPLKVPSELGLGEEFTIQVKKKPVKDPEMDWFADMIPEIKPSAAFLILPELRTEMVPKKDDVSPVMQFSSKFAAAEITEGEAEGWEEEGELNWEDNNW
# UniProt P31350, whole entry: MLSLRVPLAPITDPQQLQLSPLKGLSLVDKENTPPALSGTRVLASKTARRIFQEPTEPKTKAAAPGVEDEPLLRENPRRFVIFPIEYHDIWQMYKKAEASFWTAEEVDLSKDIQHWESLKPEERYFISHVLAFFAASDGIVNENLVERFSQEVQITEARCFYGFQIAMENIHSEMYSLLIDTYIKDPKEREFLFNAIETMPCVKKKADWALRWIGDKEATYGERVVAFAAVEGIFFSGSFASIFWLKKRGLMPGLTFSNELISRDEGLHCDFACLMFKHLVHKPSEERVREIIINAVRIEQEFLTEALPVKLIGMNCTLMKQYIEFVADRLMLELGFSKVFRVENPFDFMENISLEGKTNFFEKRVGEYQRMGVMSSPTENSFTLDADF
# UniProt Q14242: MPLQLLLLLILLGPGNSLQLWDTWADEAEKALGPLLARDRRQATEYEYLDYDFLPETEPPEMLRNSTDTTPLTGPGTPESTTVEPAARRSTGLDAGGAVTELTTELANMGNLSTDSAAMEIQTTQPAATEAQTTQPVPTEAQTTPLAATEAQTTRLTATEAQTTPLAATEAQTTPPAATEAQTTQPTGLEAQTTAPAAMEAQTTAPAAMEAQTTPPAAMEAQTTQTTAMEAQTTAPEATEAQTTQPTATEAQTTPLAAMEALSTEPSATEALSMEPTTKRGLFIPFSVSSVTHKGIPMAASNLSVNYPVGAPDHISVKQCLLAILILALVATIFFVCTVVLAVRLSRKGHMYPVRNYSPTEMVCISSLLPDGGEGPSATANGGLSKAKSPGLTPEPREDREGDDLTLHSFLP
# Some of the results follow.
# Compound: COc1ccc(Cn2ccc3cc(C)c(C(=O)NO)cc32)cc1
# Test: dose-dependent thermal stabilisation call (2D-TPP, DLPTP, 10% FDR) (binary (1 = stabilised)); higher = stabilised by the compound
# Conditions: system: HL-60 intact cells; concentration range 0.04-10 µM
# Experimental: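 2D thermal proteome profiling in intact HL-60 cells treated with BRD-3811 (0, 0.04, 0.29, 2, 10 uM) for 90 min at 37 C, then heated 3 min at one of 12 temperatures (42-63.9 C). Soluble protein was quantified by TMT10 MS. The value is the DLPTP call of the paper: dose-dependent thermal stabilisation over all temperatures at 10% FDR (F-test of a dose-response against a flat model); one experiment, one call per tested protein.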
row,Target,dose-dependent thermal stabilisation call
1,RRAGC (UniProt Q9HB90),inactive: 0
2,RP11-529I10 4,inactive: 0
3,RPRD1B (UniProt Q9NQG5),inactive: 0
4,RP2 (UniProt O75695),inactive: 0
5,SASH3 (UniProt O75995),inactive: 0
6,RPTOR (UniProt Q8N122),inactive: 0
7,RTN4 (UniProt Q9NQC3),inactive: 0
8,SELI (UniProt Q9C0D9),inactive: 0
9,SAE1 (UniProt Q9UBE0),inactive: 0
10,SENP6 (UniProt Q9GZR1),inactive: 0
11,RRAS (UniProt P10301),inactive: 0
12,RPL36 (UniProt Q9Y3U8),inactive: 0
13,RPL26 (UniProt P61254),inactive: 0
14,RPS2 (UniProt P15880),inactive: 0
15,SEH1L (UniProt Q96EE3),inactive: 0
16,RNF25 (UniProt Q96BH1),inactive: 0
17,SDHB (UniProt P21912),inactive: 0
18,RPS23 (UniProt P62266),inactive: 0

row,Target,dose-dependent thermal stabilisation call
1,RNF31 (UniProt Q96EP0),inactive: 0
2,RNF24 (UniProt Q9Y225),inactive: 0
3,SEMA4A (UniProt Q9H3S1),inactive: 0
4,SEC22B (UniProt O75396),inactive: 0
5,SEPSECS (UniProt Q9HD40),inactive: 0
6,SEC31A (UniProt O94979),inactive: 0
7,RPS6KA3 (UniProt P51812),inactive: 0
8,SERBP1 (UniProt Q8NC51),inactive: 0
9,RSBN1L (UniProt Q6PCB5),inactive: 0
10,SCARB2 (UniProt Q14108),inactive: 0
11,RP9 (UniProt Q8TA86),inactive: 0
12,RREB1 (UniProt Q92766),inactive: 0
13,SCYL3 (UniProt Q8IZE3),inactive: 0
14,RRM2 (UniProt P31350),inactive: 0
15,SELPLG (UniProt Q14242),inactive: 0
16,SCAMP3 (UniProt O14828),inactive: 0
17,RP11-345P4 4,inactive: 0
18,RPS21 (UniProt P63220),inactive: 0

# Shown with bars between the fields: entries from further up.
row | Target | dose-dependent thermal stabilisation call
11 | RP9 (UniProt Q8TA86) | inactive: 0
12 | RREB1 (UniProt Q92766) | inactive: 0
